Hit rate of the full screen: of about 320,000 compounds, about 22,000 (6.9%) were called active. Inconclusive results, whose numbers are uncertain, are shown with a selection of clear calls. The call rests on the fitted dose curve; in most records, active means well fitted inhibition curve with a large enough effect; inconclusive means small, poorly fitted or top-dose-only effect, or another doubt; inactive means no such curve, though single readings can be large or run the other way. Potencies beside an inconclusive call are fits to weak or partial responses and may not hold up.
Assay: Primary qHTS for delayed death inhibitors of the malarial parasite plastid, 96 hour incubation
Conditions: P. falciparum luciferase reporter growth; series mostly up to 28.7 µM
Summary of the method: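 Two-generation exposure (96 h) targets delayed-death phenotype. Reporter parasites carrying integrated firefly luciferase, in red cells at 2% hematocrit and 0.05% parasitemia final, kept at 37 C, 5% CO2; luminescence loss indicates inhibition.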
In the case of `NC(=O)CCN1CCN(S(=O)(=O)/C=C/c2ccccc2)CC1`, the Potency is reported as “inactive”. With `Cc1ccc(S(=O)(=O)N2CCN(C(=O)c3n[nH]c(=O)c4ccccc34)CC2)c(C)c1` the Potency was inconclusive: 10.4 µM [inhibitor, partial curve]. For `CC(=O)c1cccc(NC(=O)c2cnccn2)c1`, the Potency was inconclusive: 4.15 µM [inhibitor, single point]. For `CC(C)c1c(CN(C)[C@@H](C)Cc2ccccc2)n(C)n(-c2ccccc2)c1=O`, the Potency was inconclusive: 5.73 µM [inhibitor, partial curve]. With `Cc1ccc(CNC(=O)c2ccc(N3CCC4(CC3)CC(c3ccccc3)=NO4)c(NC(=O)c3ccccc3)c2)cc1` the Potency was inconclusive: 2.62 µM [inhibitor, full curve]. With `O=C(Nc1cc(-c2ccccc2)nn1-c1ccccc1F)c1ccc([N+](=O)[O-])cc1` the Potency was inconclusive: 0.586 µM [inhibitor, full curve, poor fit]. For `N=c1c(C(=O)NC2CCCC2)cc2c(=O)n3ccccc3nc2n1C1CCCCC1`, the Potency was “inactive”. For `Cc1nc(SCc2ccc(O)c([N+](=O)[O-])c2)c([N+](=O)[O-])[nH]1`, the Potency was inconclusive: 10.4 µM [inhibitor, partial curve, poor fit]. With `CC1CCCC/C1=N\NC(=S)Nc1ccccc1` (centres undefined) the Potency was inconclusive: 18.5 µM [inhibitor, single point]. With `Cc1cccc(NC(=S)NC(=O)c2ccc(-c3ccccc3)cc2)n1` the Potency was inconclusive: 6.57 µM [inhibitor, partial curve, poor fit]. In the case of `CC1=C(C(=O)Nc2ccccc2)C(c2ccc(C)o2)n2c(s/c(=C/c3ccccc3)c2=O)=N1` (centres undefined), the Potency is reported as inconclusive: 13.1 µM [inhibitor, partial curve]. In the case of `CC(CC(=O)NCc1ccc(Cl)cc1)S(=O)(=O)c1ccc2c(c1)NC(=O)CO2` (centres undefined), the Potency is reported as inconclusive: 5.22 µM [inhibitor, partial curve]. With `CN1CCN(C(=O)C2CCCN(c3ncnc4c3nc3n4CCCCC3)C2)CC1` (centres undefined) the Potency was “inactive”. For `COc1ccc(C(CCN2CCN(c3ccccc3)CC2)c2c(O)cc(OC)cc2OC)cc1` (centres undefined), the Potency was active: 0.465 µM. With `C=CCn1c(NC(C)c2cc(Cl)ccc2O)nc2ccccc21` (centres undefined) the Potency was inconclusive: 9.28 µM [inhibitor, single point]. For `O=c1nc(N2CCOCC2)nc(N/N=C/c2ccc3c(c2)OCO3)[nH]1`, the Potency was active: 11.7 µM. In the case of `FC(F)(F)c1ccc2c(c1)N1CCCC1CN2` (centres undefined), the Potency is reported as inconclusive: 18.5 µM [inhibitor, single point]. In the case of `CCOc1ccc2oc(C(=O)N3CC(C)OC(C)C3)c(C)c2c1` (centres undefined), the Potency is reported as active: 7.38 µM. In the case of `CC(C)(C#N)Nc1ccccc1`, the Potency is reported as inconclusive: 18.5 µM [inhibitor, single point]. With `CC1Cc2nc(SCC(N)=O)n(Cc3ccccc3)c(=O)c2S1` (centres undefined) the Potency was inconclusive: 8.28 µM [inhibitor, single point]. For `COc1ccc(C2CC(c3cccs3)=NN2C(=O)CSc2nc3c(cnn3-c3ccccc3)c(=O)[nH]2)cc1` (centres undefined), the Potency was inconclusive: 14.7 µM [inhibitor, single point]. For `CCc1ccccc1NC(=O)COc1ccc2oc(-c3ccc(OC)cc3)cc(=O)c2c1`, the Potency was inconclusive: 11.7 µM [inhibitor, single point]. With `COc1ccc(CC(=O)Nc2cc(S(=O)(=O)N3CCOCC3)ccc2N2CCOCC2)cc1` the Potency was inconclusive: 10.4 µM [inhibitor, single point]. In the case of `CC(=O)C1C(=O)C=C(c2cccs2)CC1c1ccccc1` (centres undefined), the Potency is reported as inconclusive: 0.0465 µM [inhibitor, full curve, poor fit]. In the case of `Cc1ccc(S(=O)(=O)N2CCC(N3CCCCCC3)CC2)cc1`, the Potency is reported as inconclusive: 18.5 µM [inhibitor, single point]. With `Cc1ccccc1N(CC(=O)NCCSCc1ccco1)S(C)(=O)=O` the Potency was inconclusive: 9.28 µM [inhibitor, partial curve, poor fit]. For `Cc1cc(C(C)(C)C)cc(C)c1CCNC(=O)c1c(C)noc1C`, the Potency was active: 8.28 µM. With `COc1cc(NC(=O)c2cc(S(=O)(=O)N3CCCCC3)ccc2N2CCOCC2)cc(OC)c1` the Potency was inconclusive: 18.5 µM [inhibitor, single point]. For `Cc1[nH]n(-c2ccccc2)c(=O)c1N=Nc1ccc(C(N)=O)cc1`, the Potency was “inactive”. In the case of `COc1ccc(C(=O)N2CCOC2CNC(=O)C(=O)NCc2ccccc2Cl)cc1` (centres undefined), the Potency is reported as “inactive”. In the case of `COc1ccc(CN2C(=O)CC(Cc3cc(C)cc(C)c3)C2=O)cc1OC` (centres undefined), the Potency is reported as inconclusive: 4.65 µM [inhibitor, partial curve]. For `COc1ccccc1-c1coc2cc(OCC(=O)OCc3ccccc3)ccc2c1=O`, the Potency was inconclusive: 18.5 µM [inhibitor, single point]. For `Cc1cc(C)c(C#N)c(SCC(=O)Nc2ccccc2C)n1`, the Potency was “inactive”. For `Cc1cccc(NC(=O)CSCC(=O)N(C)Cc2ccc(Cl)c(Cl)c2)c1`, the Potency was inconclusive: 18.5 µM [inhibitor, single point]. In the case of `COc1cc(C(=O)Nc2cccc3c2CCCC3)cc(OC)c1OC`, the Potency is reported as “inactive”. In the case of `CC(=O)N(C)c1ccc(N=Nc2c(C)[nH]n(-c3ccccc3)c2=O)cc1`, the Potency is reported as active: 11.7 µM. With `COc1ccc(Cl)cc1C(=O)OCC(=O)NCCNC(=O)COC(=O)c1cc(Cl)ccc1OC` the Potency was “inactive”. In the case of `O=C(Nc1cccc(Cl)c1)Nc1nccs1`, the Potency is reported as inconclusive: 0.586 µM [inhibitor, full curve, poor fit]. For `CCN(C(=O)Cc1ccccc1OC)c1nnc(-c2ccncc2)s1`, the Potency was inconclusive: 13.1 µM [inhibitor, single point]. For `O=C(OCc1nc2ccccc2s1)c1cc2ccccc2oc1=O`, the Potency was “inactive”. In the case of `Cc1ccccc1CSCC(=O)NC(=O)NCc1ccco1`, the Potency is reported as active: 6.57 µM. For `COc1ccc(C(=O)CC(=O)C(=O)Nc2ccccc2C(F)(F)F)cc1`, the Potency was “inactive”. For `O=C(c1cc2sccc2n1Cc1ccccc1)N1CCc2ccccc21`, the Potency was inconclusive: 18.5 µM [inhibitor, single point]. In the case of `CC(=O)c1ccc(NC(=O)CS(=O)(=O)c2cn(CC(=O)N3CCOCC3)c3ccccc23)cc1`, the Potency is reported as inconclusive: 10.4 µM [inhibitor, single point]. In the case of `CN(c1nc2ccccc2[nH]c1=O)C1CCCCC1`, the Potency is reported as inconclusive: 10.4 µM [inhibitor, single point]. In the case of `COc1ccc(-n2ncc3c2CC(C)(C)CC3NC(=O)CCc2c(C)nn(C)c2C)cc1` (centres undefined), the Potency is reported as active: 10.4 µM. For `CCn1cc(/C=C2/SC(=S)NC2=O)c(C)n1`, the Potency was inconclusive: 5.86 µM [inhibitor, partial curve, poor fit]. In the case of `CC1(N2CCOCC2)C(=O)c2ccccc2C1=O`, the Potency is reported as inconclusive: 5.86 µM [inhibitor, partial curve, poor fit]. With `CC(Sc1nc2ccccc2[nH]1)C(=O)O` (centres undefined) the Potency was “inactive”. With `O=C1/C(=C/c2ccco2)SC(=S)N1CCC(=O)N1CCCCC1CCO` (centres undefined) the Potency was inconclusive: 9.28 µM [inhibitor, partial curve]. In the case of `Cn1c2ccc(F)cc2c2ncn(Cc3ccccn3)c(=O)c21`, the Potency is reported as inconclusive: 0.233 µM [inhibitor, partial curve, poor fit]. With `O=C(Nc1ccc(Cl)cc1)c1ccc2snnc2c1` the Potency was inconclusive: 18.5 µM [inhibitor, single point]. In the case of `COc1ccc(/C(O)=C2/C(=O)C(=O)N(c3ccccn3)C2c2ccc(C(C)C)cc2)cc1` (centres undefined), the Potency is reported as “inactive”. In the case of `Cc1ccc2nc(-c3ccccc3)cc(C(=O)N3CCN(c4ccccc4O)CC3)c2c1`, the Potency is reported as inconclusive: 4.15 µM [inhibitor, partial curve]. For `O=C(CSc1nnc(-c2ccc(Cl)s2)o1)N1CCCc2ccccc21`, the Potency was “inactive”. In the case of `O=C(O)CNS(=O)(=O)/C=C/c1ccccc1`, the Potency is reported as inconclusive: 18.5 µM [inhibitor, single point]. For `COc1cc(C(=O)N/N=C/c2ccc(OC(=O)c3ccccc3Cl)c(OC)c2)ccc1O`, the Potency was inconclusive: 0.104 µM [inhibitor, full curve, poor fit]. For `Cc1ccsc1CNC1CCCCC1`, the Potency was inconclusive: 4.65 µM [inhibitor, partial curve, poor fit]. For `COc1ccc(OC)c(N2C(=O)NC(=O)/C(=C/c3ccc([N+](=O)[O-])s3)C2=O)c1`, the Potency was “inactive”. In the case of `CCc1nc(SCC(=O)NCCc2ccc(OC)c(OC)c2)c2c(=O)n(C)c(=O)n(C)c2n1`, the Potency is reported as inconclusive: 14.7 µM [inhibitor, partial curve, poor fit]. In the case of `C/C=C/c1ccc(OCCCCN2CCC(C)CC2)c(OC)c1`, the Potency is reported as active: 5.22 µM. For `COc1ccc(CCNC(=O)CSc2nnc(Cc3cccn3C)n2C)cc1OC`, the Potency was inconclusive: 3.29 µM [inhibitor, full curve, poor fit]. In the case of `COc1cccc(NC(=O)c2nn(C)c3c2CS(=O)(=O)c2ccccc2-3)c1`, the Potency is reported as inconclusive: 18.5 µM [inhibitor, single point]. For `Cc1cc(C)c(C(=O)COC(=O)c2cc([N+](=O)[O-])ccc2N2CCOCC2)cc1C`, the Potency was inconclusive: 18.5 µM [inhibitor, single point]. With `CCN(C(=O)COc1cccc2cccnc12)C1CCS(=O)(=O)C1` (centres undefined) the Potency was “inactive”. With `COc1cccc(NC(=O)CCc2nc(-c3cccs3)no2)c1` the Potency was inconclusive: 5.86 µM [inhibitor, partial curve]. In the case of `CC(C)Nc1nc(NC(C)C)nc(SCC(N)=O)n1`, the Potency is reported as inconclusive: 9.28 µM [inhibitor, single point]. For `C/C(CCc1ccc2c(c1)OCO2)=N\NC(=O)c1ccc(C)cc1C`, the Potency was “inactive”. For `COCCn1nnnc1CN1CCC(O)(c2cccc(C(F)(F)F)c2)CC1`, the Potency was “inactive”.

— PubChem BioAssay AID504834 (National Center for Advancing Translational Sciences (NCATS), 2011)
Potency means the concentration at half of the fitted maximal effect.
